Reference: patent US6194169A, “Enhanced expression of human platelet-derived growth factor in Pichia pastoris” (The University of Kentucky Research Foundation, priority 1998, dated 2001)
Some results come without the dose or concentration used.

Tested on: CHO cells
Assay: [35S]cysteine pulse-chase of cell surface association and secretion in CHO cells
Format: cell-based, Chinese hamster

Q: What does the source list for “WT-RKK: human PDGF B-chain (PDGF-BB homodimer) with wild-type loop III residues Arg Lys Lys (RKK)”?
A: time of appearance of suramin-releasable p34/35 on the cell surface: ≤ 1 h; time of disappearance of suramin-releasable p34/35 from the cell surface: ≤ 24 h; time of peak of suramin-releasable p34/35 on the cell surface: ≤ 3 h
